Sequences of proteins named here, by UniProt entry; tags and fusion partners are left off.
UniProt P08913, whole entry: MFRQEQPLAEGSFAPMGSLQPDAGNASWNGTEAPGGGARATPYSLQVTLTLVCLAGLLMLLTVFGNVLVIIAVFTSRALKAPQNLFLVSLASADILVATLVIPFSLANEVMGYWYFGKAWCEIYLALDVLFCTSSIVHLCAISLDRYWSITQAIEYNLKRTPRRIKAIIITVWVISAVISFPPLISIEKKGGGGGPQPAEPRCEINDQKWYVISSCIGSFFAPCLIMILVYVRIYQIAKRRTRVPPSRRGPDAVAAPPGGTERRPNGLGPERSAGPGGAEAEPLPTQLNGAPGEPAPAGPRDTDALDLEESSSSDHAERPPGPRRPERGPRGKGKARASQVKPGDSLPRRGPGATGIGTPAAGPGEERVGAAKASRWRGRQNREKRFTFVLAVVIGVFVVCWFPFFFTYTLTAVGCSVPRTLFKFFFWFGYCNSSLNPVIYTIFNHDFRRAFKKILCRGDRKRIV
UniProt P18089, whole entry: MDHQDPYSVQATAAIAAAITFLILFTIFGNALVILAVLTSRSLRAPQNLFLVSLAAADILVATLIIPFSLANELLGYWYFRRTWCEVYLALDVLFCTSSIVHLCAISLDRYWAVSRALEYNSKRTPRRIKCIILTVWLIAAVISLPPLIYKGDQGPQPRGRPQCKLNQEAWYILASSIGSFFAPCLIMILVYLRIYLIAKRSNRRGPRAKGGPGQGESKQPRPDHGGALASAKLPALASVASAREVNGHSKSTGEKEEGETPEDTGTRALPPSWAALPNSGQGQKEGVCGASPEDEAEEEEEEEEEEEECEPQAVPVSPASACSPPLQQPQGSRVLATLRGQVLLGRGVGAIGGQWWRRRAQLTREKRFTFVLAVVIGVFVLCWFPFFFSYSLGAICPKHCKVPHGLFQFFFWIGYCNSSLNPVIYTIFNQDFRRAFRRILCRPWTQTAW
UniProt P08588, whole entry: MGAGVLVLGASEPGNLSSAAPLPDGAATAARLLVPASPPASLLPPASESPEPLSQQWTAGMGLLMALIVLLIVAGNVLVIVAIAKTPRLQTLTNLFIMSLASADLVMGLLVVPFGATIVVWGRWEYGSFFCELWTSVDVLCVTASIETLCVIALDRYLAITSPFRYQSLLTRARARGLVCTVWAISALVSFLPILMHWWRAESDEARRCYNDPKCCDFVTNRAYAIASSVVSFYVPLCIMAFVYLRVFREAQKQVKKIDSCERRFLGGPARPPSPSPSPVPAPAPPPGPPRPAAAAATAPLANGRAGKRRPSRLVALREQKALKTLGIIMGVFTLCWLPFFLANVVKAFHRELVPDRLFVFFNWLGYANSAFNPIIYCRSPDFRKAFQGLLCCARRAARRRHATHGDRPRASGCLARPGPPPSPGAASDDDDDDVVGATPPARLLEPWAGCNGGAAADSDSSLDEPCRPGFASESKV
UniProt P07550, whole entry: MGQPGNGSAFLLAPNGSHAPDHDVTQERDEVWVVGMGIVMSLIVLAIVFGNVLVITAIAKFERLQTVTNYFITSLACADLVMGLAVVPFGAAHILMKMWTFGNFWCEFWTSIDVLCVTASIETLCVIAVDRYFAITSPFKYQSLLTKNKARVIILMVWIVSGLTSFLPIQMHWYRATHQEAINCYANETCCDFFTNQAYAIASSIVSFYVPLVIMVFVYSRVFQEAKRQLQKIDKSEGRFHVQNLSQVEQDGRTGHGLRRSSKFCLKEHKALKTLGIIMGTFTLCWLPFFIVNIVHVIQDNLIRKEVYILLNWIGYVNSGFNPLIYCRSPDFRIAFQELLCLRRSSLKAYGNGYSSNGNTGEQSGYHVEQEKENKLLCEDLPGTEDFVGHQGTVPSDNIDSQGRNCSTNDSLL

According to article PMC9471048:

Tests used:
[1] = target: T1, human α2A‐adrenoceptor (Homo sapiens, UniProt P08913); experiment: 3H‐rauwolscine whole cell binding in CHO‐α2A cells
[2] = target: T2, human α2B‐adrenoceptor (Homo sapiens, UniProt P18089); experiment: 3H‐rauwolscine whole cell binding in CHO‐α2B cells
[3] = target: T3, human β1‐adrenoceptor (Homo sapiens, UniProt P08588); experiment: 3H-CGP12177 whole cell binding in CHO-β1 cells; settings: log of top concentration used; KD not calculable
[4] = target: T4, human β2‐adrenoceptor (Homo sapiens, UniProt P07550); experiment: 3H-CGP12177 whole cell binding in CHO-β2 cells; settings: log of top concentration used; KD not calculable
[5] = target: T3, human β1‐adrenoceptor; experiment: CRE-SPAP production in CHO-β1 cells
[6] = target: T4, human β2‐adrenoceptor; experiment: CRE-SPAP production in CHO-β2 cells
[7] = target: T1, human α2A‐adrenoceptor; experiment: CRE‐SPAP gene transcription in CHO‐α2A cells
[8] = target: T2, human α2B‐adrenoceptor; experiment: CRE‐SPAP gene transcription in CHO‐α2B cells
[9] = fold, from KD values, 1 = no selectivity
[10] = with 3 µM forskolin (inhibitory response)

Cc1sc(C)c2c1CCC=C2c1cnc[nH]1.O=C(O)/C=C\C(=O)O [T‐CG 1000]
Log KD, CHO‐α2A ([1]; 3H‐rauwolscine whole cell binding, living cells, negative log KD, mean ± SEM): −7.08 ± 0.03 | Log KD (binding) ([1]; CHO‐α2A, 3H‐rauwolscine whole cell binding, given as negative log KD): −7.08 | Selectivity ratio α2A vs α2B (higher affinity for α2A) [1, 9]: 11.7 | Selectivity ratio α2A vs α2C (higher affinity for α2A) [1, 9]: 2.1 | Log KD (binding) ([2]; CHO‐α2B, given as negative log KD): −6.01 | Log KD, CHO‐α2B ([2]; living cells, negative log KD, mean ± SEM): −6.01 ± 0.03 | IC50 (log), 3H-CGP12177 whole cell binding CHO-β1 [3]: IC50>-4 | IC50 (log), 3H-CGP12177 whole cell binding CHO-β2 [4]: IC50>-4 | Log EC50 ([5]; no forskolin, log values): No resp | Log IC50 [5, 10]: No resp | Log EC50 ([6]; no forskolin, log values): No resp | Log IC50 [6, 10]: No resp | Log EC50 (Gs), CRE‐SPAP (without forskolin) ([7]; CHO‐α2A (cell line 1), absence of forskolin): No response | Log IC50 (Gi), CRE‐SPAP (with forskolin) ([7]; CHO‐α2A (cell line 1, 5830 fmol/mg protein), 3 μM forskolin): No response | Log IC50 (Gi), CRE‐SPAP (with forskolin) ([8]; 3 μM forskolin): −7.78 ± 0.08 | Log EC50 (Gs), CRE‐SPAP (with forskolin) ([8]; 3 μM forskolin, stimulatory part of biphasic response): −6.89 ± 0.05 | Log EC50 (Gs), CRE‐SPAP (without forskolin) ([8]; absence of forskolin): −6.46 ± 0.05 | Log efficacy ratio (KD/IC50) ([8]; binding KD / Gi IC50 of CRE‐SPAP): 1.77 | % 3 μM forskolin, CRE‐SPAP (without forskolin) ([8]; maximum response compared to 3 μM forskolin): 115.6 ± 8.6%

The match of structure and compound is tentative.
